Source: publication doi:10.1101/2023.04.17.537135 (bioRxiv, 2023)
Where two headings read alike, the source gives them in different places. No constants are given. Whether binding was seen depends on the method and setting. For some of these results: Binding seen in cells or lysates may run through a third protein. Some binding calls cover weakened binding; strength is not graded here. For some of these results: Where a sequence is shown, tags or fusion partners need not be part of it. Values belong to the binder of their own block, whether it stands above or below them.

By UniProt entry, the sequences of proteins in these tests, tags left out.
UniProt Q9SI37: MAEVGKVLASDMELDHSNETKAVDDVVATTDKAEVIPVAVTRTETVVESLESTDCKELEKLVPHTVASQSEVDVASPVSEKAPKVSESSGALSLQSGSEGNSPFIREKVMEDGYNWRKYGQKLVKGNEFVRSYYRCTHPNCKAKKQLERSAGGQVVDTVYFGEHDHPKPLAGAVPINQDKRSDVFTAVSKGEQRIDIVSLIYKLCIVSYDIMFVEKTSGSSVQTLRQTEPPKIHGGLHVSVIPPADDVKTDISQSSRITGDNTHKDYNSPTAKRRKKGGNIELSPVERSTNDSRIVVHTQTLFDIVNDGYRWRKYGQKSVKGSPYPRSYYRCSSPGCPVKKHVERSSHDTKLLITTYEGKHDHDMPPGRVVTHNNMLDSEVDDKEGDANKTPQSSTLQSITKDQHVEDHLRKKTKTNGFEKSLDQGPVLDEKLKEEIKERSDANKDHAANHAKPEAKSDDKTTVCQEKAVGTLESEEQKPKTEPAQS

Columns and labels:
[1] = target: T1, AHL10 (AT-Hook Like10), full length, yeast two-hybrid bait (Arabidopsis thaliana) (UniProt O22812); test: two-hybrid
T1 sequence: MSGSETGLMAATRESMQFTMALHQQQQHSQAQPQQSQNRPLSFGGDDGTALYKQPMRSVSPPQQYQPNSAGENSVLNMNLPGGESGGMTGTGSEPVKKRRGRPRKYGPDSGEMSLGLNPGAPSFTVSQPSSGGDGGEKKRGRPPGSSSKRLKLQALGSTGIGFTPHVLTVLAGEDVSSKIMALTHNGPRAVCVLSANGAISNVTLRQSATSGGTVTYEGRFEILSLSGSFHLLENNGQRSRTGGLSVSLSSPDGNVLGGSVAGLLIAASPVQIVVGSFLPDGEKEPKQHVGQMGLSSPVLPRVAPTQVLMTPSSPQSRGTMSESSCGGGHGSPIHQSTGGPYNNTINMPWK

[2] = target: T1, AHL10 (AT-Hook Like10), full length, yeast two-hybrid bait (Arabidopsis thaliana); test: two-hybrid; remark: listed apart in the source
[3] = target: WRKY1, rBiFC fusion (Arabidopsis thaliana) (UniProt Q9SI37); test: split reporter
[4] = target: WRKY1, rBiFC fusion (Arabidopsis thaliana) (UniProt Q9SI37); test: split reporter; remark: listed apart in the source

- binding [1]: binds
- binding [2]: binds
B1: RRP6L1Δ1-562 (C-terminal 76 amino acids of RRP6L1), yeast two-hybrid prey (domain or fragment, UniProt Q0WVE8 563-637)
chain: ESYEQSTKAADALDRVSETPSKGSPSLTQKPKTCNTEVIVLDDDDDSESREDEDMRRRSEKHRRFMNMKRGFLNI

- binding [1]: no binding
B2: RRP6L1 C-terminal 338 amino acids, yeast two-hybrid prey (domain or fragment, UniProt Q0WVE8 300-637)
chain: VYKRSYDVCMQLYEKELWTRDSYLHVYGVQTGNLNAVQLSIVAGLCEWRDRIARADDESTGYVLPNKTLFDIAKEMPIVVAQLRRLLKSKLPYLERNFDAVISVIRRSMQNAAAFEPVVQSLKDRRPETVVEMNIEPKIEKTDTGASASSLSLEKVCVDDSKKQSSGFGVLPLKRKLESDKTVVEKNIEPKIEKTGTEASASSLSSKKVCVDDSKKQSSGFGVLLSKRKFESDNKVKEEVKVSKSKPDKVIIVVDDDDDDDDDESYEQSTKAADALDRVSETPSKGSPSLTQKPKTCNTEVIVLDDDDDSESREDEDMRRRSEKHRRFMNMKRGFLNI

Continued, binder first:

B3: AHL10 (AT-Hook Like10), full length, yeast two-hybrid bait (protein, UniProt O22812 1-351)
chain: T1 sequence
- binding [1]: binds

B4: AHL10 wild type, rBiFC fusion (protein, UniProt O22812 1-351)
chain: T1 sequence
- binding [3]: binds
- binding [4]: binds

B5: RRP6L1 C-terminal 192 amino acids, yeast two-hybrid prey (domain or fragment, UniProt Q0WVE8 446-637)
chain: SASSLSLEKVCVDDSKKQSSGFGVLPLKRKLESDKTVVEKNIEPKIEKTGTEASASSLSSKKVCVDDSKKQSSGFGVLLSKRKFESDNKVKEEVKVSKSKPDKVIIVVDDDDDDDDDESYEQSTKAADALDRVSETPSKGSPSLTQKPKTCNTEVIVLDDDDDSESREDEDMRRRSEKHRRFMNMKRGFLNI
- binding [1]: binds
